Values from PubChem BioAssay AID1259254 (NCATS, 2017)

- Assay: 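Genome-wide screen for genes that prevent DNA re-replication in cancer cells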 (primary screen)
- Cell system: human HCT116 colorectal cancer cells
- Reagents: single siRNA against human genes
- Timing: 3 days
- Measured: 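Imaged Hoechst DNA stain sorts each cell into a cycle phase by DNA amount; per plate, G2 fraction set to 0% for non-targeting and 100% for GMNN siRNA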
- Direction: G2 robust z-score: higher = more G2 cells, more excess DNA replication
- Call rule: 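An siRNA counts as active if its G2 robust z-score lies at least 5 MADs above the screen median; here such calls match roughly 38% of GMNN control or more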
In all, the deposit lists about 59,000 reagents; shown is a part drawn at random. Of all reagents, about 1,550 (2.6%) are marked active. 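G2 share is only a proxy for re-replication; each gene was hit by three separate siRNAs, and active genes were retested.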 Unmarked entries are inactive. The numbers tell different reagents against one gene apart. Further read-outs or replicates are left out here. Not given: the amount of reagent.

gene symbol	reagent	G2 robust z-score
GALK2	1	1.08
GALK2	2	-1.42
GALK2	3	-0.743
KRT24	1	1.21
KRT24	2	0.908
KRT24	3	-0.817
PDCD7	1	0.34
PDCD7	2	1.19
PDCD7	3	-0.18
ZNF772	1	3.92
ZNF772	2	0.947
ZNF772	3	2.57
ACTRT1	1	3.07
ACTRT1	2	3
ACTRT1	3	0.0138
RPS29	1	5
RPS29	2	2.52
RPS29	3	1.31
PLA2R1	1	-0.213
PLA2R1	2	-0.832
PLA2R1	3	-0.631
ARPP21	1	2.35
ARPP21	2	-0.692
ARPP21	3	-0.0551
MRPL50	1	-0.912
MRPL50	2	0.993
MRPL50	3	0.932
ATP6V0A1	1	-0.225
ATP6V0A1	2	1.9
ATP6V0A1	3	-0.503
EVC	1	3.11
EVC	2	0.447
EVC	3	-0.835
SNRPC	1	-0.363
SNRPC	2	0.343
SNRPC	3	1.85
IFTAP	1	-0.956
IFTAP	2	0.0081
IFTAP	3	-0.989
OGDH	1	-1.22
OGDH	2	-0.796
OGDH	3	-0.825

A stretch taken from the entries so far:
gene symbol	reagent	G2 robust z-score
MRPL50	2	0.993
MRPL50	3	0.932
ATP6V0A1	1	-0.225
ATP6V0A1	2	1.9
ATP6V0A1	3	-0.503
EVC	1	3.11

The list goes on.
gene symbol	reagent	G2 robust z-score
HCRTR1	1	1.28
HCRTR1	2	3.97
HCRTR1	3	0.766
ROCK1P1	1	0.454
ROCK1P1	2	0.374
ROCK1P1	3	5.51 (active)
CASQ2	1	-0.528
CASQ2	2	-0.505
CASQ2	3	2.46
STAT1	1	2.82
STAT1	2	-0.473
STAT1	3	-1.1
INTS14	1	1.99
INTS14	2	0.3
INTS14	3	-1.1
COQ4	1	2.66
COQ4	2	-0.188
COQ4	3	-0.516
SLC6A12	1	-0.259
SLC6A12	2	-0.107
SLC6A12	3	0.906
KRT42P	1	0.936
KRT42P	2	2.37
KRT42P	3	0.442
CRYBA2	1	-0.408
CRYBA2	2	1.07
CRYBA2	3	-0.621
